From US20190352297A1, “SELECTIVE AURORA A KINASE INHIBITORS” (UNIVERSITAT BERN, priority 2017, published 2019)
Some of these results come from one statement about several compounds together. At least one structure is not confirmed: it was looked up by name or label, or the drawing left a doubt.

Each compound was assayed against T1, Aurora A kinase domain (Homo sapiens, UniProt O14965) (assay: HTRF kinase assay, Aurora A). Conditions: FIG. 1b.
T1 construct: human Aurora A kinase domain (residues 122-403 in the pET24-d vector); His-tag (cleaved yes); made in house; host or cells: E. coli BL21 (DE3) Rosetta
T1 sequence (O14965 122-403): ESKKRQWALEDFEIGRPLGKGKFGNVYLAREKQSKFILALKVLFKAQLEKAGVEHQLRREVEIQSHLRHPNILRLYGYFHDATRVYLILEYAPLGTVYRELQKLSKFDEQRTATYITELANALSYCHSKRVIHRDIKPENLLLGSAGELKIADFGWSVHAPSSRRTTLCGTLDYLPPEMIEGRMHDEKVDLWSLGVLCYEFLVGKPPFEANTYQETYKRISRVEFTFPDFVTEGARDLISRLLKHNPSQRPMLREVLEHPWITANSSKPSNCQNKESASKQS
Format: biochemical
Procedure: The clone of human Aurora A kinase domain (residues 122-403 in the pET24-d vector) was kindly provided by the Montoya laboratory (University of Copenhagen). The construct was transformed into E. coli BL21 (DE3) Rosetta cells and protein expression was induced with 0.5 mM IPTG at 20° C. for 12 hours. The cells were harvested at 6,000×g for 25 min at 4° C. and resuspended in lysis buffer (50 mM Tris-HCl, 500 mM NaCl, 1 mM PMSF, pH=8.0). Disruption of the cells was performed by sonication cooled on ice, after which the debris were removed by centrifugation at 110,000×g for 30 min at 4° C. Aurora A was purified by affinity chromatography using NiNTA resin from Qiagen following the manufacturer's instructions. After loading, the resin was washed with lysis buffer, followed by a second wash with 6% elution buffer (50 mM Tris-HCl, 500 mM NaCl, 500 mM imidazole, pH=8.0). Protein was eluted with 100% elution buffer. The eluate was exchanged into final buffer (20 mM Tris-HCl, 200 mM NaCl, 0.5 mM EDTA, 2 mM DTT, pH=8.0) using a HiPrep 26/10 desalting column (GE Healthcare). The His-tag was cleaved with TEV protease at 4° C. overnight. The tag and minor impurities were removed by a second nickel affinity chromatography step. Aggregated and soluble Aurora A were separated from one another by size exclusion chromatography using a HiLoad 16/60 Superdex™ 200 column (GE Healthcare) equilibrated in final buffer. Soluble Aurora A was concentrated using Vivaspin-15 concentrators (Sartorius Stedim Biotech). Protein concentration was determined by UV absorbance. Aurora A was flash frozen in liquid nitrogen and stored at −18° C.
Aurora A and AuroraB kinases were assayed using the homogeneous time-resolved fluorescence (HTRF) KinEASE STK2 kit from Cisbio (France). […] For both enzymes, the reactions were run for 30 min at room temperature and stopped by the addition of 10 μL of detection buffer containing EDTA, antiphospho-Ser/Thr antibody labelled with europium cryptate, and XL-665 conjugated streptavidin (62.5 nM final concentration). After incubation at room temperature for one hour, fluorescence was measured at 620 nm (europium cryptate) and 665 nm (XL-665) after excitation at 317 nm (lag time 60 μs, integration time 500 μs) using a Tecan Infinite M1000 PRO microplate reader (Greiner 384-well plates, white, non-binding, small volume). The ratio of fluorescence (665 nm/620 nm) was calculated for each well and the results were expressed as follows: specific signal=ratio (sample)−ratio (negative control), where ratio=665 nm/620 nm×10^4. Compounds were measured in threefold serial dilutions at 10 different concentrations, covering the concentration range from no to full inhibition. Each concentration was measured in duplicates, and two independent determinations were made for each IC50 value. IC50 curves were generated using a four-parameter logistic model (XLfit from IDBS).

| Structure (SMILES) | potency against Aurora A, in words |
| --- | --- |
| CCc1ccc(N=C2SC(=Cc3ccnc(NC(=O)CCC(=O)O)c3)C(=O)N2C)cc1 [Compound 82] | low nanomolar |
| CCc1ccc(N=C2SC(=Cc3ccnc(Nc4ccc(-c5nn[nH]n5)cc4)c3)C(=O)N2C)cc1 [Compound 88] | low nanomolar |
| CCc1ccc(N=C2SC(=Cc3ccnc(NC(=O)CCCC(=O)O)c3)C(=O)N2C)cc1 [Compound 83] | low nanomolar |
| CCc1ccc(N=C2SC(=Cc3ccnc(NC(=O)CC(=O)O)c3)C(=O)N2C)cc1 [Compound 81] | low nanomolar |
| CCc1ccc(N=C2SC(=Cc3ccnc(Nc4ccc(C(=O)O)cc4)c3)C(=O)N2C)cc1 [Compound 87] | low nanomolar |
